Source: PubChem BioAssay AID1967 (NCATS, 2009).

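Fitted concentration-response potency from a dual-colour luciferase reporter of Pmp22 promoter activity in mouse Schwann cells.
Compounds were tested as an eight-point series from about 0.0037 to 115 µM.
Potency from the fitted curve, where lower values mean more potent compounds; many rows carry cytotoxic curve flags.
Calls follow curve class, fit quality and response size; every row here is inconclusive, which carries a score of 1 to 39.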

Values are in µM.
All entries here are filed as inconclusive.
These entries are mostly ones the record files as inconclusive; other results of the assay are not listed here.
Potencies fitted to partial, single-point or poorly fitting curves are rough.
Some entries filed as inconclusive have a full curve.
The first word of each remark tells which way the curve ran; it can be opposite to the aim of the assay.
Activity scores are not listed here.

SMILES,potency (µM),remark
OC[C@H]1O[C@@H](n2cnc3c(Nc4ccccc4)ncnc32)[C@H](O)[C@H]1O,75.69,"cytotoxic, partial curve"
Nc1ccc(N2C(=O)c3ccccc3C2=O)c(Cl)c1,75.69,"cytotoxic, partial curve, poor fit"
COc1ccccc1N1CCN(CCN(C(=O)c2ccc(F)cc2)c2ccccn2)CC1,84.92,"cytotoxic, single point"
NC[C@@H]1O[C@H](C23CC4CC(CC(C4)C2)C3)Cc2c1ccc(O)c2O,19.01,"cytotoxic, single point"
N.N.N.N.N.N.N.N.N.N.N.N.N.N.O.O.[Cl-].[Cl-].[Cl-].[Cl-].[Cl-].[Cl-].[Ru].[Ru].[Ru],60.12,"inhibitor, partial curve"
O=C(/C=C/c1ccc(O)cc1)c1ccc(O)cc1O,15.1,"activator, full curve"
OC[C@H]1O[C@@H](n2cnc3c(NC4CCCCC4)ncnc32)[C@H](O)[C@@H]1O,75.69,"cytotoxic, partial curve"
S=C(S)N1CCCC1,7.569,"inhibitor, full curve"
Nc1nc2ccc(OC(F)(F)F)cc2s1,47.75,"cytotoxic, partial curve"
Oc1ccc(/C=C/c2cc(O)cc(O)c2)cc1,42.56,"cytotoxic, partial curve"
O=[N+]([O-])c1cc(O)c(O)c([N+](=O)[O-])c1,84.92,"cytotoxic, single point"
CN1CCc2cc(O)c(O)cc2C(c2ccccc2)C1 (centres undefined),84.92,"cytotoxic, partial curve"
CP(=O)(O)C1=CCNCC1,84.92,"cytotoxic, single point"
C[C@]12CC[C@H](O)CC1=CCC1C2CC[C@]2(C)C(=O)CC[C@@H]12 (some centres undefined),95.28,"cytotoxic, single point"
COc1cc2c(cc1OC)-c1cc(=Nc3c(C)cc(C)cc3C)n(C)c(=O)n1CC2,33.81,"cytotoxic, full curve"
CC(C)Cc1ccc([C@H](C)C(=O)O)cc1,84.92,"activator, single point"
COc1ccc2[nH]c3c(c2c1)CCNC3,30.13,"falling, partial curve, poor fit"
CC(C)(C)c1ccc(S(=O)(=O)/C=C/C#N)cc1,8.492,"cytotoxic, full curve"
CCN1/C(=C/C(C)=O)Sc2ccc(OC)cc21,67.46,"cytotoxic, partial curve"
NC(=O)C1=CN(C2OC(COP(=O)(O)OP(=O)(O)OC[C@H]3O[C@@H](n4cnc5c(N)ncnc54)[C@H](OP(=O)(O)O)[C@H]3O)C(O)C2O)C=CC1 (some centres undefined),95.28,"cytotoxic, single point"

For reference, 2 entries once more:

SMILES,potency (µM),remark
S=C(S)N1CCCC1,7.569,"inhibitor, full curve"
O=C(/C=C/c1ccc(O)cc1)c1ccc(O)cc1O,15.1,"activator, full curve"